Results are given in words; binding and its absence hold for the method and conditions named. Some entries that bind do so weakly or less than the wild type.
T1: serine palmitoyltransferase (SPT) complex (SPTLC1, SPTLC2, SPTssa) (human) (UniProt O15269+O15270+Q969W0)
T1 sequence 1: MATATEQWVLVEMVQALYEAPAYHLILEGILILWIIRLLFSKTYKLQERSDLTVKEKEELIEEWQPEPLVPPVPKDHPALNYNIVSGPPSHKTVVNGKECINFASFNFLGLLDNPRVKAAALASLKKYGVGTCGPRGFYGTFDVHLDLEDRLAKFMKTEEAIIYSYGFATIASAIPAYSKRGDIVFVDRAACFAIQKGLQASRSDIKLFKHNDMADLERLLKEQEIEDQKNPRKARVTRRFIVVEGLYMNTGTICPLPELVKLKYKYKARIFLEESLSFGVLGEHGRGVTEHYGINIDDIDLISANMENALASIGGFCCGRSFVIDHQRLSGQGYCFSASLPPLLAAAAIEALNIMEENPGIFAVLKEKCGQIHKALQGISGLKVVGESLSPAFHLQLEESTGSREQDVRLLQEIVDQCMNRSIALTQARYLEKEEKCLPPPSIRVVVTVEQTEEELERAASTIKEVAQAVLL
T1 sequence 2: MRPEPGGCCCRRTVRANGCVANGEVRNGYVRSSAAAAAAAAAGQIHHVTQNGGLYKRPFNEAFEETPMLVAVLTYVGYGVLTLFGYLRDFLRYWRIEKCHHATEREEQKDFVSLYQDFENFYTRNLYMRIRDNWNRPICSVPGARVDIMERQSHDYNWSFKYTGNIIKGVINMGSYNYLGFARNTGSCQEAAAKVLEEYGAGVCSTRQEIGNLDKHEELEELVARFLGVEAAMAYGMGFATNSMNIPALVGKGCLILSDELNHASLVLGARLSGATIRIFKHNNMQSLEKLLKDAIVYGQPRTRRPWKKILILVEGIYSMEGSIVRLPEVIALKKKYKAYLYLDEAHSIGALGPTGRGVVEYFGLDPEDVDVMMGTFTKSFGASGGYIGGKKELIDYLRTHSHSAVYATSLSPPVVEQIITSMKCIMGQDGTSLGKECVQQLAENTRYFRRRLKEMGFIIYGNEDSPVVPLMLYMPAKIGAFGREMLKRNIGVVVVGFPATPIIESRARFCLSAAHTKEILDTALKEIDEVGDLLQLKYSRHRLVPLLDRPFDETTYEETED
T1 sequence 3: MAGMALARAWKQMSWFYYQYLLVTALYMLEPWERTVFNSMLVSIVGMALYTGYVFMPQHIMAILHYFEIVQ


Target: T1, serine palmitoyltransferase (SPT) complex (SPTLC1, SPTLC2, SPTssa) (human)
Test: co-purification (anti-Flag affinity resin, then SEC; Coomassie-stained SDS-PAGE); subunits co-expressed in HEK293F; membranes solubilized with 1% GDN; anti-Flag G1 resin, elution with Flag peptide, Superose 6 in 25 mM HEPES pH 7.5, 150 mM NaCl, 0.01% GDN; which subunit carries the Flag tag is not stated

binding | Binder
binds | ORMDL3-H85A (protein, UniProt Q8N138 1-153) MNVGTAHSEVNPNTRVMNSRGIWLSYVLAIGLLHIVLLSIPFVSVPVVWTLTNLIHNMGMYIFLHTVKGTPFETPDQGKARLLTAWEQMDYGVQFTASRKFLTITPIVLYFLTSFYTKYDQIHFVLNTVSLMSVLIPKLPQLHGVRIFGINKY
binds | ORMDL3 with Val16 replaced by arginine (protein, UniProt Q8N138 1-153) MNVGTAHSEVNPNTRRMNSRGIWLSYVLAIGLLHIVLLSIPFVSVPVVWTLTNLIHNMGMYIFLHTVKGTPFETPDQGKARLLTHWEQMDYGVQFTASRKFLTITPIVLYFLTSFYTKYDQIHFVLNTVSLMSVLIPKLPQLHGVRIFGINKY
binds | ORMDL3 with Ile22 replaced by arginine (protein, UniProt Q8N138 1-153) MNVGTAHSEVNPNTRVMNSRGRWLSYVLAIGLLHIVLLSIPFVSVPVVWTLTNLIHNMGMYIFLHTVKGTPFETPDQGKARLLTHWEQMDYGVQFTASRKFLTITPIVLYFLTSFYTKYDQIHFVLNTVSLMSVLIPKLPQLHGVRIFGINKY
